Paper PMC12149670
Results are given in words; binding and its absence hold for the method and conditions named. Binding seen in cells or lysates may run through a third protein. Some entries that bind do so weakly or less than the wild type. Where a sequence is shown, tags or fusion partners need not be part of it.

Protein sequences, listed by entry. Tags and fused reporters are not part of them.
UniProt P05627: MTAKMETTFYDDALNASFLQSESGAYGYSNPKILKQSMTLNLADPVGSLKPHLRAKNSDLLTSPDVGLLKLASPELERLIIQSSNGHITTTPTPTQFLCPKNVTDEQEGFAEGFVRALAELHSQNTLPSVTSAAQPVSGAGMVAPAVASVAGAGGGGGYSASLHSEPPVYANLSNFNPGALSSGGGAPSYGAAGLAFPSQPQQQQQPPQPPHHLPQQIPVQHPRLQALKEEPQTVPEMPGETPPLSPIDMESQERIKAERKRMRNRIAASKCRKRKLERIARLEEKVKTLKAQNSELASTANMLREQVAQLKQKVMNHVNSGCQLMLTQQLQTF
UniProt Q04207: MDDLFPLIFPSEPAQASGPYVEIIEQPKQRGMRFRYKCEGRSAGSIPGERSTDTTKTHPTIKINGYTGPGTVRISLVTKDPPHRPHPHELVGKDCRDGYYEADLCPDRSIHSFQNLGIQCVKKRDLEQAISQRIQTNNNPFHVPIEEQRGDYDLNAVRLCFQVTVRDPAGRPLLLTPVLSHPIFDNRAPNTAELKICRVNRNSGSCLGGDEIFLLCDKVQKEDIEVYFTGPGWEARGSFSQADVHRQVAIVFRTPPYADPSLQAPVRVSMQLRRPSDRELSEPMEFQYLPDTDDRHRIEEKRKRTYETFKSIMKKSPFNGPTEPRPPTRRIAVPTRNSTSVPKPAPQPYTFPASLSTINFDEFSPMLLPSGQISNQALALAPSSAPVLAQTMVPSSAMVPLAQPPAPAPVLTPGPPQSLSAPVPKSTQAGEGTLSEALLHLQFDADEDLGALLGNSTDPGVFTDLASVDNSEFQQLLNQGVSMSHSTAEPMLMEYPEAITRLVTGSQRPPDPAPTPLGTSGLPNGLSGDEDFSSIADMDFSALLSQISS

Key:
[1] = target: CTBP2-Halo-tag (CTBP2 wt-Halo-tag) (human) (UniProt P56545); experiment: FRET or BRET; NanoBRET in living LPS-treated (100 ng/ml, 6 h) J774.1 Ctbp dKO cells: Nano-luciferase fusion as donor, CTBP2-Halo-tag with Halo-ligand 618 as acceptor; milliBRET units, wells without ligand subtracted
[2] = target: CTBP2 mono-Halo-tag (human) (UniProt P56545); experiment: as above

Nano-luciferase–labeled JUN (from UniProt P05627 1-334)
binding [1]: binds

Nano-luciferase–labeled RELA (from UniProt Q04207 1-549)
binding [1]: binds

B1: Nano-luciferase–labeled JUNB (protein, UniProt P09450 1-344)
chain: MCTKMEQPFYHDDSYAAAGYGRSPGSLSLHDYKLLKPTLALNLADPYRGLKGPGARGPGPEGSGAGSYFSGQGSDTGASLKLASTELERLIVPNSNGVITTTPTPPGQYFYPRGGGSGGGTGGGVTEEQEGFADGFVKALDDLHKMNHVTPPNVSLGASGGPQAGPGGVYAGPEPPPVYTNLSSYSPASAPSGGSGTAVGTGSSYPTATISYLPHAPPFAGGHPAQLGLSRGASAFKEEPQTVPEARSRDATPPVSPINMEDQERIKVERKRLRNRLAATKCRKRKLERIARLEDKVKTLKAENAGLSSAAGLLREQVAQLKQKVMTHVSNGCQLLLGVKGHAF
binding [2]: binds | binding [1]: binds
